Assay results: the supplement of paper PMC10849652
Some of the results follow.

Amino acid sequences for entries named in this document (tags omitted). A change or cut given only in a name is not applied to a line headed by its entry.
UniProt Q99543: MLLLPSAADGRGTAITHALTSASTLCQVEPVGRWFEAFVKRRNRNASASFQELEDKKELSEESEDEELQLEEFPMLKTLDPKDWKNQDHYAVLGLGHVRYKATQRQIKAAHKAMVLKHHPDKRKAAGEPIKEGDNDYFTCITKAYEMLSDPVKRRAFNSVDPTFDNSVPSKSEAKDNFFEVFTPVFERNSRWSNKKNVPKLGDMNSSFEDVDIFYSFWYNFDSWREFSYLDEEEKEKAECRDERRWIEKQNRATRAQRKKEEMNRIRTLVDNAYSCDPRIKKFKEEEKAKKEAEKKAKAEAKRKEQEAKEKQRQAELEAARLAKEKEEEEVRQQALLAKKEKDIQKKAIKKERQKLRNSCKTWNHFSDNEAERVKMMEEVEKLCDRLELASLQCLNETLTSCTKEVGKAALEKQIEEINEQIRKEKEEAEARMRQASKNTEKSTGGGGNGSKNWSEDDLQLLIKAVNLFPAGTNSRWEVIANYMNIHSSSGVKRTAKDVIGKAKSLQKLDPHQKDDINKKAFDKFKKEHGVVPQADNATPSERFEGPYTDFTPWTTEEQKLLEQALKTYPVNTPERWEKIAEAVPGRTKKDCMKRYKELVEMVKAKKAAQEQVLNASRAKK
UniProt O00115: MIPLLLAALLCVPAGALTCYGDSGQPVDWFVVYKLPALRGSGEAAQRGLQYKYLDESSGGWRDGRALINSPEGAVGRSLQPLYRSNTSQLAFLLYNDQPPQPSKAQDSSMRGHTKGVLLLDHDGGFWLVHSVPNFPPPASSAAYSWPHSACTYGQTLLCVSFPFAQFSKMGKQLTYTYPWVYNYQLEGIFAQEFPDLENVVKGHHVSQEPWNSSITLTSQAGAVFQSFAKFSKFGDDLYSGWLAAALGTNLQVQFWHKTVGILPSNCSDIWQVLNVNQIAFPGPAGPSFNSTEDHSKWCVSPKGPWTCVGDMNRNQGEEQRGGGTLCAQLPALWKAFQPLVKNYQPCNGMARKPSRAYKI
UniProt Q6P2E9: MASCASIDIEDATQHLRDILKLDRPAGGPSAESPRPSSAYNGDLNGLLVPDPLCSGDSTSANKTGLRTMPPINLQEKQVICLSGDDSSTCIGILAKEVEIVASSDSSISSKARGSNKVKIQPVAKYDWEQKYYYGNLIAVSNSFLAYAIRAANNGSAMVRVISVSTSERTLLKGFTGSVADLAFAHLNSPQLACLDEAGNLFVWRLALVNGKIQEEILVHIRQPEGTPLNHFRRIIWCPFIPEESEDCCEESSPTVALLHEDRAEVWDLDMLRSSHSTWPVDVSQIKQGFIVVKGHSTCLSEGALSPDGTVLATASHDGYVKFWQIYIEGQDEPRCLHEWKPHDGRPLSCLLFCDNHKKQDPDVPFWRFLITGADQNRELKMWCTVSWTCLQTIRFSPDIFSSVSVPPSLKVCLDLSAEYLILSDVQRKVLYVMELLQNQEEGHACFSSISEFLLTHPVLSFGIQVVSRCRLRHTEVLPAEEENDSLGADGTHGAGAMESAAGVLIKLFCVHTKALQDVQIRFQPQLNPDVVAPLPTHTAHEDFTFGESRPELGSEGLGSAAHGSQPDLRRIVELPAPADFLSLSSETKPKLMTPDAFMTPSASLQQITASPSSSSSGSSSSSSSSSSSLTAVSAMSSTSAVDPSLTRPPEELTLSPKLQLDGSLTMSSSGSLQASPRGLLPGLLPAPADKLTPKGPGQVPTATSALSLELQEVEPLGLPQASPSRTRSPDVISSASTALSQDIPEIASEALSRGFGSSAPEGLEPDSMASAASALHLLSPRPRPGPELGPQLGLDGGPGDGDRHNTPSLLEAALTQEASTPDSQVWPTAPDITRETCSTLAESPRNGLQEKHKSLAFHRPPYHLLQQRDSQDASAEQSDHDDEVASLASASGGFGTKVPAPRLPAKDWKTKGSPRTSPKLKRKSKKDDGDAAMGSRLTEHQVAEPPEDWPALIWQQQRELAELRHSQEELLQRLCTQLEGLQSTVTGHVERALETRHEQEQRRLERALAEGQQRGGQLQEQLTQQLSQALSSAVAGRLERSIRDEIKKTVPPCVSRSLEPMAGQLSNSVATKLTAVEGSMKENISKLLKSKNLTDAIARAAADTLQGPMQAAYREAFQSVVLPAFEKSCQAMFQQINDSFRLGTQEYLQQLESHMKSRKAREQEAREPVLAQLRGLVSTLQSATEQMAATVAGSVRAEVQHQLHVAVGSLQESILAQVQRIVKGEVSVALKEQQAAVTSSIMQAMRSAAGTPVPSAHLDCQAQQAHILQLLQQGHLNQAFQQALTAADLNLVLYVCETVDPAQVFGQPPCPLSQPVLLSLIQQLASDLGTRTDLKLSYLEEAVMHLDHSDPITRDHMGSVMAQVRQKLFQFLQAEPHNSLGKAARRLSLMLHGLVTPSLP
UniProt P60981: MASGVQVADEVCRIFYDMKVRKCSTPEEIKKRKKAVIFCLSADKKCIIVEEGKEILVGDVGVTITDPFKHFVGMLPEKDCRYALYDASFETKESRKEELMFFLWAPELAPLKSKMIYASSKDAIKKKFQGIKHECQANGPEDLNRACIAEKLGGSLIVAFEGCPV
UniProt Q14126: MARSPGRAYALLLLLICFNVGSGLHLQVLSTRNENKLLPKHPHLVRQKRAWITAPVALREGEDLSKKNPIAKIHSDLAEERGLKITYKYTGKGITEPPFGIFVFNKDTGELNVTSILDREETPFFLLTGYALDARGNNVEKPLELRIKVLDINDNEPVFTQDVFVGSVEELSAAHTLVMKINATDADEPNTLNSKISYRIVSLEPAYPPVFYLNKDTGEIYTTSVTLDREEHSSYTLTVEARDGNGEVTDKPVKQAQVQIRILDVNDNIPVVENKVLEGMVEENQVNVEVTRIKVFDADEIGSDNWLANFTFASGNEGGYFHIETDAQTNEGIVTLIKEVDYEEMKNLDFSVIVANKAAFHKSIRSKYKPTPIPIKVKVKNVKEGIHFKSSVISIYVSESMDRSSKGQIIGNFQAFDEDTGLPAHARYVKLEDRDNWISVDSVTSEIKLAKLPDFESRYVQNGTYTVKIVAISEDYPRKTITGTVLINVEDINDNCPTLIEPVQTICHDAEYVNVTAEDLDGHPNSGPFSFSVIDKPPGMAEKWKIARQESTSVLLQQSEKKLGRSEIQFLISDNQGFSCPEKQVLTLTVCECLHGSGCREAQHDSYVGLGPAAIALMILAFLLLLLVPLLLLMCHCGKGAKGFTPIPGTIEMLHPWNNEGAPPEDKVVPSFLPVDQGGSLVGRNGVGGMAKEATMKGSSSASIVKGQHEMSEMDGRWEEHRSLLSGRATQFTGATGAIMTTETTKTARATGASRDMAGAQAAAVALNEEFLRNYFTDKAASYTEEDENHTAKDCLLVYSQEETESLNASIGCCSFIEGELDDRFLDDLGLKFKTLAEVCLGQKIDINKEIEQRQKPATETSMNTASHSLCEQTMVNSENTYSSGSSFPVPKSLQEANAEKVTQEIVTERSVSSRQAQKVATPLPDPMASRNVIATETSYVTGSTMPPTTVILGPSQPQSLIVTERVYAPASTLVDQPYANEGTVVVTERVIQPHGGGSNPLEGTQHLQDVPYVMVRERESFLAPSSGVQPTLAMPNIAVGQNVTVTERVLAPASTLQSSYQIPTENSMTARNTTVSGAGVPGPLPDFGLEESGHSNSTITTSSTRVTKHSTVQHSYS
UniProt Q9P2X0: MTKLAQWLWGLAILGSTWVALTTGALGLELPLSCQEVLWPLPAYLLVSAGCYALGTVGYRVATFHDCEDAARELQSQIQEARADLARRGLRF
UniProt P42892: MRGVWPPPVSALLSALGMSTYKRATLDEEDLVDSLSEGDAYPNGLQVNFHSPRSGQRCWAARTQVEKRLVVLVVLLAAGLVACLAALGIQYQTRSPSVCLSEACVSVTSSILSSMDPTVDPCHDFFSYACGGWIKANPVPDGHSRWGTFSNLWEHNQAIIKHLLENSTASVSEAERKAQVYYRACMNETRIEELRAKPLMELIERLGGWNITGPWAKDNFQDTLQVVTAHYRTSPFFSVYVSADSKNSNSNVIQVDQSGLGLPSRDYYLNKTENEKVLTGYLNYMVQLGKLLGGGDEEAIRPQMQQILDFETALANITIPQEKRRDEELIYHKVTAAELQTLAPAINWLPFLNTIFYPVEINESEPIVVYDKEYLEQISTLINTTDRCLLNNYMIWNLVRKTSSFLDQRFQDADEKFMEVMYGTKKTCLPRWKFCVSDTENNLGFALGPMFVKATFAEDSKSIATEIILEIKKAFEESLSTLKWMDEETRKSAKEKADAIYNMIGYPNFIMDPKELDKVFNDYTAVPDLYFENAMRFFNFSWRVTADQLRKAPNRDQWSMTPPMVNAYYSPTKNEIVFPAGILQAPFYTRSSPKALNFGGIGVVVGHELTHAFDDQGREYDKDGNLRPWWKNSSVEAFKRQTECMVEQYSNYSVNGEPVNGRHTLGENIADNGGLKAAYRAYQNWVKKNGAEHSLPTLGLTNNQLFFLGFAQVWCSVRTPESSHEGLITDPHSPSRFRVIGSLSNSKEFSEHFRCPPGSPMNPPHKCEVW
UniProt Q9BZ29: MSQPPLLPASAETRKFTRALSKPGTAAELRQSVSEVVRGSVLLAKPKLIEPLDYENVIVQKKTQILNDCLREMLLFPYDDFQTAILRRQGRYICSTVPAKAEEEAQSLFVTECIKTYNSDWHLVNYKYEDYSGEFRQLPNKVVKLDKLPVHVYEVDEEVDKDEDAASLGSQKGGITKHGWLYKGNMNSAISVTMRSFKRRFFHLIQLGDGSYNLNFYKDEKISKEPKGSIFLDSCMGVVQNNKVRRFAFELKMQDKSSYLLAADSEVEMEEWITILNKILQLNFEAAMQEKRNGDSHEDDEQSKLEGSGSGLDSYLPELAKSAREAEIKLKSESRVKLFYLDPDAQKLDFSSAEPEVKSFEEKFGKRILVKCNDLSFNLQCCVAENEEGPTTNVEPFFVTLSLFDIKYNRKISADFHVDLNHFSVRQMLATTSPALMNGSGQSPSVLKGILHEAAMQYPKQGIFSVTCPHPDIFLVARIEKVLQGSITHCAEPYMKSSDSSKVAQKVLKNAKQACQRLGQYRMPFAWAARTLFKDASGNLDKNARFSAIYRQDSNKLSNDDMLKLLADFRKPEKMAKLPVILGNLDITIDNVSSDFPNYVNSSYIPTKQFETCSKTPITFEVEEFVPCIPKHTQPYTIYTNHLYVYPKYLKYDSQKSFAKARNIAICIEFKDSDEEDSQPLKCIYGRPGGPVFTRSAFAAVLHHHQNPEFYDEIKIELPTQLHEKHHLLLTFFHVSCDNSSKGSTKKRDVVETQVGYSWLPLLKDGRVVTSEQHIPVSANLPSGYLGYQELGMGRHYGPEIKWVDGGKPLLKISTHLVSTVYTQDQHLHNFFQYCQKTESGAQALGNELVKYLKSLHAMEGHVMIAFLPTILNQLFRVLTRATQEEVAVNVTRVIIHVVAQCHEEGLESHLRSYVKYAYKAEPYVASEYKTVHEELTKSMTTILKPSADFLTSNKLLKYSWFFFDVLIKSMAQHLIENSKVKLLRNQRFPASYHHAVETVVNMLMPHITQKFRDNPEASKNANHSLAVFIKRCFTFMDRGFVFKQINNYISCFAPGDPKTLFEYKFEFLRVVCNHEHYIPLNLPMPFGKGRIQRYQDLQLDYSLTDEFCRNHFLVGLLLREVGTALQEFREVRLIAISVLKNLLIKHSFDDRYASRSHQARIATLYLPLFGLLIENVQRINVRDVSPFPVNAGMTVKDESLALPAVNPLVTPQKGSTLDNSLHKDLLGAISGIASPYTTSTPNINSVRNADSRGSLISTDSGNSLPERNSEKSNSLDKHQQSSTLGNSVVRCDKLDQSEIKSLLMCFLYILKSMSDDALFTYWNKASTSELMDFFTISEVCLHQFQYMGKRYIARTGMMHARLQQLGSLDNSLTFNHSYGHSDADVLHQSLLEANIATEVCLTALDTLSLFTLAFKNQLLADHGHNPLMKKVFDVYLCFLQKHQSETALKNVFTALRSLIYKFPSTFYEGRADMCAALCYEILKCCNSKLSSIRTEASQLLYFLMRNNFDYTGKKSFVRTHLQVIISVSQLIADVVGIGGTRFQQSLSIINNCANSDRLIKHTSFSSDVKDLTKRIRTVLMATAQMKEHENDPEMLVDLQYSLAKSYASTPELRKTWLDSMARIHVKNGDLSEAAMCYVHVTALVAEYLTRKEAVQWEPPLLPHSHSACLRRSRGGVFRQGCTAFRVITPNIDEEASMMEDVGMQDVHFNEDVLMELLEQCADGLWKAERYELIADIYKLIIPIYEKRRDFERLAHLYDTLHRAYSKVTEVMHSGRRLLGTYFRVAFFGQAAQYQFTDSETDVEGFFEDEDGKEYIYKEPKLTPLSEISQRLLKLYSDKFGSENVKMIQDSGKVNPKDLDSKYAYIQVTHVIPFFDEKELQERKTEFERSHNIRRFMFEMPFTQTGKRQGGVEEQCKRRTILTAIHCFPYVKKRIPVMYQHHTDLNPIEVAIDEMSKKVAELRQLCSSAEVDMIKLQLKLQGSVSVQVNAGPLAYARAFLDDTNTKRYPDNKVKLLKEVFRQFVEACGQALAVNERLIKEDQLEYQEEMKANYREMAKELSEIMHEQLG

Compound: C#Cc1cccc(Nc2ncnc3cc(OCCOC)c(OCCOC)cc23)c1 [erlotinib]
Test: log2 fold change, soluble protein after heating vs DMSO (PISA); higher = thermal stabilisation; K562 cells, 10 uM, 30 min; active = over 0.2 and 3.5 SD of the protein, either way, in both replicates (recomputed)
Procedure, shortened: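 K562 cells at 2×10^6 cells/mL were exposed to 10 μM compound for 30 min, then aliquots were heated for 3 min across 48°C-58°C, pooled, and extracted in PBS containing 0.5% NP-40 at 4°C. The supernatant after 21,000xg for 90 min was taken as soluble protein and measured by TMTpro 16plex LC-MS/MS with channel sums equalised. Thermal stability is reported relative to control samples, with values from duplicates. Fold changes are given on a log2 scale.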

log2 fold change, inactive:
DNAJC13 (UniProt O75165) 0.016, DYRK1A isoform 2 (UniProt Q13627) 0.034, DRAP1 isoform 2 (UniProt Q14919) 0.012, E2F4 (UniProt Q16254) 0.021, DNAJC2 (UniProt Q99543) 0.104, DNAJC5 (UniProt Q9H3Z4) -0.011, EDEM1 (UniProt Q92611) 0.029, DNAJC7 (UniProt Q99615) 0.02, DNASE2 (UniProt O00115) -0.013, ECM1 isoform 4 (UniProt Q16610) -0.003, DUT (UniProt P33316) -0.001, EDC4 (UniProt Q6P2E9) -0.045, DSTN (UniProt P60981) -0.023, DOCK7 (UniProt Q96N67) 0.013, DSC2 (UniProt Q02487) -0.128, DUSP3 (UniProt P51452) 0.035, DPH7 (UniProt Q9BTV6) 0.052, DRG1 (UniProt Q9Y295) -0.02, EDC3 (UniProt Q96F86) -0.023, ECH1 (UniProt Q13011) -0.027, DNAJB14 (UniProt Q8TBM8) 0.243, DST (UniProt Q03001) 0.266, DSG2 (UniProt Q14126) -0.015, DNAJC17 (UniProt Q9NVM6) 0.025, DPM3 isoform 2 (UniProt Q9P2X0) 0.041, DNAJB4 (UniProt Q9UDY4) 0.009, EDF1 (UniProt O60869) 0.016, ECE1 (UniProt P42892) -0.055, DNAJB11 (UniProt Q9UBS4) 0, DR1 (UniProt Q01658) 0.019, DNLZ (UniProt Q5SXM8) 0.032, DOCK9 isoform 4 (UniProt Q9BZ29) -0.051, DPH1 (UniProt Q9BZG8) -0.011
